Assay results as given in paper PMC9039263.
Results are given in words; binding and its absence hold for the method and conditions named. Binding seen in cells or lysates may run through a third protein. Some entries that bind do so weakly or less than the wild type.

T1: JunB Proto-Oncogene (JunB) (rat (endogenous in primary thoracic aortic VSMCs)) (UniProt P24898)
T1 sequence: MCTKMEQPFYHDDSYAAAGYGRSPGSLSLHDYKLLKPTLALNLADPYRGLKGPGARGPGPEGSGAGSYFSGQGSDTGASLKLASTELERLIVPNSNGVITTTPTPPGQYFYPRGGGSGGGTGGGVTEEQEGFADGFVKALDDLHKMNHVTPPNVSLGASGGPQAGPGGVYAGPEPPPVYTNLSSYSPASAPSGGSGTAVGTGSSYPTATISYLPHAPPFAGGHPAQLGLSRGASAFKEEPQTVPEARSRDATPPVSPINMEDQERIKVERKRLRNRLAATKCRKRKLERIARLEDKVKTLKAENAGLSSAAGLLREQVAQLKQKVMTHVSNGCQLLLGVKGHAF

T2: FBJ osteosarcoma oncogene related antigen 1 (Fra-1) (rat (endogenous in primary thoracic aortic VSMCs)) (UniProt P10158)
T2 sequence: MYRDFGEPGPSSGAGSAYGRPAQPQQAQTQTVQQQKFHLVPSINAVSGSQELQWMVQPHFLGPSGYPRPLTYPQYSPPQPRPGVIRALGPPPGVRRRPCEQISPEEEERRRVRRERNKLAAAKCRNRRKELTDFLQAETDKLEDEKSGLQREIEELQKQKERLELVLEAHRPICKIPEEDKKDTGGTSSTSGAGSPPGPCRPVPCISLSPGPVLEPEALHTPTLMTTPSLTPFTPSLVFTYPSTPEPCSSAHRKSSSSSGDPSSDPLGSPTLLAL


How the values were obtained:
[1] = target: T1, JunB Proto-Oncogene (JunB) (rat (endogenous in primary thoracic aortic VSMCs)); assay: co-IP; endogenous proteins in lysates of VSMCs infected with C. pneumoniae (5 × 10^5 IFU) for 24 h; 500 μg cellular protein, 2 μg anti-JunB or anti-Fra-1 antibody, Protein A/G PLUS-Agarose, 4°C overnight; Western blot
[2] = target: T2, FBJ osteosarcoma oncogene related antigen 1 (Fra-1) (rat (endogenous in primary thoracic aortic VSMCs)); assay: as above

Row | Binder | binding [1] | binding [2]
1 | FBJ osteosarcoma oncogene related antigen 1 (Fra-1) (protein, UniProt P10158 1-275) MYRDFGEPGPSSGAGSAYGRPAQPQQAQTQTVQQQKFHLVPSINAVSGSQELQWMVQPHFLGPSGYPRPLTYPQYSPPQPRPGVIRALGPPPGVRRRPCEQISPEEEERRRVRRERNKLAAAKCRNRRKELTDFLQAETDKLEDEKSGLQREIEELQKQKERLELVLEAHRPICKIPEEDKKDTGGTSSTSGAGSPPGPCRPVPCISLSPGPVLEPEALHTPTLMTTPSLTPFTPSLVFTYPSTPEPCSSAHRKSSSSSGDPSSDPLGSPTLLAL | binds | –
2 | JunB Proto-Oncogene (JunB) (protein, UniProt P24898 1-344) MCTKMEQPFYHDDSYAAAGYGRSPGSLSLHDYKLLKPTLALNLADPYRGLKGPGARGPGPEGSGAGSYFSGQGSDTGASLKLASTELERLIVPNSNGVITTTPTPPGQYFYPRGGGSGGGTGGGVTEEQEGFADGFVKALDDLHKMNHVTPPNVSLGASGGPQAGPGGVYAGPEPPPVYTNLSSYSPASAPSGGSGTAVGTGSSYPTATISYLPHAPPFAGGHPAQLGLSRGASAFKEEPQTVPEARSRDATPPVSPINMEDQERIKVERKRLRNRLAATKCRKRKLERIARLEDKVKTLKAENAGLSSAAGLLREQVAQLKQKVMTHVSNGCQLLLGVKGHAF | – | binds
